Data published in US12673025B2, “Pegylated liposomes and uses thereof” (LT BIOPHARMA INC., priority 2024, dated 2026).
Some of these results come from one statement about several compounds together.

Tests used:
VRSA 01 = test: Time-kill analysis; type: cell-based, Staphylococcus aureus; conditions: 1×MIC
Experimental: The antimicrobial activity of nosiheptide and nosiheptide liposome against VRSA 01 were assessed by time-kill analysis. VRSA 01 was cultured in TSB medium overnight. After that, fresh TSB was inoculated for growth to mid-logarithmic phase. Bacteria was added at starting inoculum of 5×10^9 CFU/ml. Nosiheptide and nosiheptide liposome were added to final concentrations with 1×MIC and ¼×MIC, the value of MICs were determined in previous experiments. Bacteria with only medium was regarded as the grown control. The cultures were incubated in 37° C. shaking incubator, and aliquots were removed from each tube at 1, 2, 4, 8, 24 hours and serially diluted for CFU enumeration on TSA plates. To compare rates of antibiotic killing, the decline of viable bacteria (Log10 CFU/ml) was evaluated at the measured time points. Experiments were repeated independently in triplicate. The lower limit of detection for the colony counts was 2 log10 CFU/ml.

human red blood cells = test: Hemolysis study; type: cell-based; conditions: 200 μg/ml, 1 h, 37° C., human RBCs

SMILES: C=C(NC(=O)c1csc(-c2nc3c(cc2O)-c2nc(cs2)C(=O)NC(C(C)O)C(=O)N/C(=C\C)c2nc(cs2)C(=O)NC2CC(O)C(=O)OCc4cccc5[nH]c(c(C)c45)C(=O)SCC(NC(=O)c4csc2n4)c2nc-3cs2)n1)C(N)=O (stereo not drawn) [Nosiheptide Free, Nosiheptide]
- inoculum at 24 hours (VRSA 01; 24 hours): under 2 log unit
- time to 2-log kill (VRSA 01; VRSA 01): ≤ 1 hour
- hemolysis (human red blood cells): less than 5%
